According to the supplement of paper PMC7024190:
Structures can show the parent of a compound that is named as a salt. This is one part of the list. Single values are uncertain here, since repeats match poorly.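 Human embryonic kidney cells were transiently transfected with a plasmid bearing a Renilla luciferase gene under the HSV-TK promoter. This first-round screen tests roughly ten thousand compounds for ones that increase reporter output.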

The compounds below were run on HEK 293FT (assay: log relative Renilla luciferase luminescence (reporter expression vs reference, reference not stated) (log (base not stated)); higher = higher recombinant reporter expression). Conditions: 10 µM; time after transfection 48 h.

Row | Compound | log
1 | NC(=O)Nc1sc(-c2ccc(F)cc2)cc1C(N)=O | -0.012
2 | COc1cccc(OC)c1OCCNCC1COc2ccccc2O1 (centres undefined) [WB 4101 hydrochloride] | -0.0393
3 | COc1ccc(CCN(C)CCc2ccc(OC)c(OC)c2)cc1OC [YS-035 hydrochloride] | 0.118
4 | CC1(C)C(=O)NC2=C1C(=O)C(=O)c1ccccc12 | -0.837
5 | COc1ccc(Br)cc1S(=O)(=O)NC(=O)/C=C/c1ccccc1Cc1ccc2ccccc2c1 | 0.0596
6 | COc1ccc(CN2C(=O)C(=O)c3cc(OC(F)(F)F)ccc32)cc1 | 0.026
7 | OC(CCCN1CCN(c2ncc(F)cn2)CC1)c1ccc(F)cc1 (centres undefined) | 0.0079
8 | CC[C@H](CO)Nc1nc(Nc2cccc(-c3ccccn3)c2)c2ncn(C(C)C)c2n1 [(R)-DRF053 dihydrochloride] | -0.138
9 | [O-][S+](c1ccccc1)c1ccc2nnnn2n1 (centres undefined) | 0.0718
10 | COc1ccc2[nH]c(I)c(CCNC(C)=O)c2c1 [2-Iodomelatonin] | 0.00954
11 | O=C(CCCCCN1C(=O)c2cccc3cccc(c23)C1=O)NO [Scriptaid] | 0.651
12 | C[C@@H](CN1CCC(Cc2ccccc2)CC1)[C@@H](O)c1ccc(O)cc1 [Ro 25-6981 maleate] | 0.119
13 | CCN(CC)CCOCCOC(=O)C1(c2ccccc2)CCCC1 [Carbetapentane citrate] | 0.143
14 | CN=c1nc(-c2ccccc2)n(-c2ccccc2)s1 | 0.0738
15 | COc1ccc(C2CC(c3c(O)cc(C)oc3=O)=NCCS2)c(OC)c1 (centres undefined) | 0.0718
16 | CCCCCCN(CCCCCC)C(=O)Cc1c(-c2ccc(F)cc2)[nH]c2ccccc12 | -0.0524
17 | COc1cccc(NC(=O)/C=C/c2ccc(Cl)cc2)c1 | -0.0919
18 | O=C1NC(c2cccc([N+](=O)[O-])c2)=CCN1c1ccccc1O [Icilin] | 0.189
19 | N[C@@H](Cc1cc(CP(=O)(O)O)cc(-c2ccccc2Cl)c1)C(=O)O | -0.044
20 | N#Cc1ccc(NCCNCC(=O)N2CCC[C@H]2C#N)nc1 [NVP DPP 728 dihydrochloride] | -0.0536
21 | Oc1ccc(C2CNCCc3c2cc(O)c(O)c3Cl)cc1 (centres undefined) [Fenoldopam hydrochloride] | 0.141
22 | Brc1c(NC2=NCCN2)ccc2nccnc12 | 0.0619
23 | CC(C)C(=O)c1c(C(C)C)nn2ccccc12 [Ibudilast] | -0.0145
24 | CCn1c(=O)[nH]c2ccccc21 | -0.147

Reformatted in markdown: entries from further up.

| Row | Compound | log |
| --- | --- | --- |
| 17 | COc1cccc(NC(=O)/C=C/c2ccc(Cl)cc2)c1 | -0.0919 |
| 24 | CCn1c(=O)[nH]c2ccccc21 | -0.147 |
